Experimental data as given in the supplement of paper PMC3334620.
The full ranking holds about 33,000 sequences; the median of “E-score (-0.5 to 0.5)” is about -0.0059, and the highest 2% start at about 0.26. The list shows a part of the results.

target: T1, Cin5 (UniProt P40917); assay: PBM E-score (8-mer binding enrichment) (E-score (-0.5 to 0.5)); higher = stronger / more preferred TF binding; settings: protein concentration: 100 nM; construct: GST-full length
T1 sequence: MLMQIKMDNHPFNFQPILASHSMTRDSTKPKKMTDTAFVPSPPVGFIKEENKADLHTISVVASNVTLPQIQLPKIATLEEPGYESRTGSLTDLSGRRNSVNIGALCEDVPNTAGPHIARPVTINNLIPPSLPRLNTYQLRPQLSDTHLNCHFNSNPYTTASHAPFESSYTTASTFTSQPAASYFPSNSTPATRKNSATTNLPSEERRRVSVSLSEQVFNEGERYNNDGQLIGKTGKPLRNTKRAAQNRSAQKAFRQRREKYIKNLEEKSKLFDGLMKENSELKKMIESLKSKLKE
Summary of the method: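 Masliner-normalised scans of fluorescent anti-GST signal were the basis for scoring. That signal came from GST-tagged yeast transcription factors applied at about 100-200 nM to double-stranded universal all-10-mer Agilent arrays on fresh or once-stripped slides. Each ungapped eight-base word, pooled with its reverse complement, received an E-score from the Universal PBM Analysis Suite.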

| Sequence | PBM E-score |
| --- | --- |
| AAAAATAC | 0.159 |
| ACAAACTC | 0.059 |
| ACCTACGG | -0.381 |
| GAAAGTGC | -0.103 |
| CTTTAAGA | 0.12 |
| GAGCGACA | -0.0378 |
| GCTGAGCA | 0.021 |
| GCCCGCCC | -0.0859 |
| GTTAACCA | 0.0943 |
| CACAGTAA | 0.209 |
| GTGCAAGA | 0.0774 |
| ACTCACAT | 0.0812 |
| ATTATTCC | 0.273 |
| ACCGTTCA | -0.0881 |
| ATGGGTGG | 0.194 |
| ACGCAGAC | -0.065 |
| ATGTGACG | 0.0123 |
| CGAAGGTA | 0.00785 |
| GCACAGAC | 0.0155 |
| GTAGCTGA | -0.14 |
| ACATTTGG | -0.0058 |
| ATAAAGGA | -0.157 |
| AAAAGAAC | 0.0584 |
| CTCGATAA | 0.149 |
| CCCCGTCG | -0.31 |

| Sequence | PBM E-score |
| --- | --- |
| AGACACAT | -0.147 |
| CGGTATGC | -0.138 |
| CAGTATGA | 0.149 |
| CACCACGA | 0.0261 |
| AGACACAG | -0.0513 |
| ACGGCATG | -0.0125 |
| AAAATAAT | 0.212 |
| AGTAGCGA | 0.108 |
| AGTCCGGA | -0.0408 |
| CCAATAAA | 0.134 |
| GACCTGTA | -0.102 |
| CTGGTTGA | -0.165 |
| GGAAGCTA | -0.0268 |
| ACCGCTTG | 0.0485 |
| CAACGGGA | -0.00044 |
| AGATTTCC | 0.185 |
| AAGGCAAA | 0.185 |
| ACGTTCTA | 0.0493 |
| CGACATCC | -0.101 |
| GCCGACTA | 0.104 |
| CTGGTCTA | -0.172 |
| AGTAGAAT | 0.137 |
| TCGCGAAA | 0.151 |
| CCGCATCG | -0.279 |
| TACGAGAA | 0.0576 |

| Sequence | PBM E-score |
| --- | --- |
| GCTTTTAA | -0.0582 |
| TGAAATAA | 0.138 |
| CTAAAATC | -0.0399 |
| AACAGGAG | -0.0535 |
| CGCGTGAC | -0.0643 |
| GTGGTACA | -0.0413 |
| GCCTCCAA | -0.162 |
| AGACGAGC | -0.273 |
| GCCGGAGA | -0.0706 |
| CTGCGCTA | -0.0995 |
| CCATGACG | -0.0398 |
| GAATACCC | 0.00321 |
| CTTTATAC | 0.0035 |
| CGCCAGAC | -0.134 |
| ACAAGTAA | 0.0192 |
| CAGACTCC | -0.211 |
| ACTAATCT | 0.128 |
| CATCCGCC | 0.0814 |
| AGGCTGGA | -0.204 |
| ACACGATC | 0.0692 |
| CCGTCATC | -0.075 |
| ATGATTCA | -0.0169 |
| AAGTTCGT | -0.0372 |
| GAGCTGCA | -0.0506 |
| AGATTAGA | -0.0761 |

| Sequence | PBM E-score |
| --- | --- |
| ATGACCTA | 0.0938 |
| CGCGCCCC | -0.107 |
| CTATGATC | -0.0495 |
| ACCCTGAG | -0.0935 |
| ATAACTAG | 0.2 |
| GACGCACA | -0.0151 |
| ACCGGCTC | -0.167 |
| ACACCTCA | 0.0284 |
| ACTCTCGG | 0.0048 |
| TCCGAAAA | -0.17 |
| GAATCGGC | 0.0637 |
| CACCCATA | 0.00193 |
| GATGGACA | 0.0812 |
| CAAAGACC | -0.15 |
| CCAGGTTA | 0.0733 |
| GTTCAAAA | -0.105 |
| GTGAGAGA | -0.15 |
| ACGTGACC | -0.0447 |
| ACGCAGCA | -0.0778 |
| GATAAGCA | 0.275 |
| AGGCACAC | -0.217 |
| CATCTGAG | 0.00866 |
| AGGGGTGC | -0.088 |
| CGATACTA | 0.219 |
| AGCTTCGG | -0.187 |

| Sequence | PBM E-score |
| --- | --- |
| ATGATTGC | 0.234 |
| TGATGGCA | -0.112 |
| CACTATCG | 0.0597 |
| AGAAGATA | 0.188 |
| CGTTTATA | 0.23 |
| CCATTAAA | -0.0244 |
| CTCCGCAA | -0.233 |
| CACTGGCC | -0.2 |
| CCTCGAGG | 0.0694 |
| CTTCCGGC | 0.069 |
| CCGAGTCC | -0.156 |
| AAGATGCA | 0.216 |
| TAATTGAA | -0.0513 |
| AGACGAAA | 0.205 |
| CCAGCGCC | -0.312 |
| GATCCCGC | 0.156 |
| CGAGATCG | -0.0928 |
| AATCCCAT | 0.141 |
| ATAAATGA | 0.156 |
| CGCGTCCA | -0.0924 |
| GGATACCC | -0.0478 |
| CGCCTTTC | -0.135 |
| ATGCACCA | -0.112 |
| AACTTTAC | 0.039 |
| AAGCGAAT | 0.223 |

Single values from the list.
PBM E-score, CGTTTATA reads 0.23
PBM E-score, CCGAGTCC reads -0.156
PBM E-score, ATGATTGC reads 0.234

(further entries)

| Sequence | PBM E-score |
| --- | --- |
| CCGGTAGG | -0.163 |
| GCTTCTCA | -0.0109 |
| CACTCGGC | 0.0804 |
| CCTCGGGA | -0.13 |
| AACTACTC | 0.177 |
| AGTCTTTC | -0.154 |
| AGCTTCAT | 0.103 |
| CCATATCA | 0.099 |
| CGACCCGC | -0.119 |
| GTTTTTTA | -0.0307 |
| ACGCCTGG | -0.0426 |
| CATAATAG | 0.241 |
| CGGGCAAC | -0.0371 |
| GTACCACA | 0.115 |
| CAAATAGC | 0.111 |
| CTCCTGTA | 0.0328 |
| CAGTGGCC | -0.205 |
| CCCCTTGC | -0.222 |
| ACGACCGC | -0.109 |
| CTTATAAA | 0.154 |
| CGCAAACA | 0.193 |
| TCAGAAGA | -0.13 |
| ACTAGTTA | 0.025 |
| ACGGAACG | 0.175 |
| CCTAATAC | 0.113 |

Pulled one by one from the list above (five):

| Sequence | PBM E-score |
| --- | --- |
| CACTGGCC | -0.2 |
| ACTCTCGG | 0.0048 |
| CGACCCGC | -0.119 |
| ACAAACTC | 0.059 |
| GTACCACA | 0.115 |

Continuation.

| Sequence | PBM E-score |
| --- | --- |
| GTCTAGTA | 0.22 |
| ATGGCTGC | -0.0428 |
| CCACAACG | -0.153 |
| TATCCGGA | 0.142 |
| GCCGTAAA | 0.138 |
| GCCATGCA | -0.0503 |
| ATTCTTTA | -0.0489 |
| CCGGGGCG | -0.146 |
| CAATCGTG | -0.0307 |
| CATCCACG | 0.0707 |
| AATCAGAC | 0.133 |
| CAGAGCTG | -0.166 |
| CTGGGAAA | 0.0445 |
| AGTCATAA | -0.0314 |
| GGAGAAAA | -0.0389 |
| TCATCTAA | 0.129 |
| AGATGACA | 0.0835 |
| AGATTGCG | 0.0202 |
| GCGCGCTA | 0.146 |
| GTATCTCA | 0.196 |
| CACCGTCA | -0.131 |
| GGTCGAAC | -0.0747 |
